The list is a part of this screen's results and no random one: it is rich in T/C values a quarter to a half above the control, in often repeated tests (any T/C) and in doses without a T/C. Further doses and runs are listed elsewhere. T/C is the treated group as % of the vehicle group. Some doses have a count of surviving animals in place of a T/C: the source holds a T/C of zero for them, seemingly a mark for toxic or unscored doses. Some survivor counts are full or nearly so, which does not show that the dose was tolerated: the source hardly ever lists a survival T/C far under the control, and the zero likely stands for such cases as well. Counts of survivors are from the toxicity check (mostly the fifth day) where no day follows; animals may have died later. Schedule codes are those of the source, read here as Q, the interval in days (D) or hours (H), X, the number of doses. For survival time, this PubChem deposit counts one and a half times the control or more as active, and values a quarter to a half above the control carry no call in these data; other NCI protocols may use other cut-offs. Some entries were tested several times; the values are given in rising order. Some T/C values carry the count of animals alive at the toxicity check (mostly the fifth day); where none is given, no animal had died by that day.
Tested on: L1210 leukemia ip in BDF1 mice, survival T/C
Experiment: NCI In Vivo Anticancer Drug Screen. Data for tumor model L1210 Leukemia (intraperitoneal) in B6D2F1 (BDF1) mice
Details: T/C endpoint: mean survival time, higher T/C = longer survival
[1] = dose: 12.5 mg/kg/injection, schedule: Q01DX001 (ip), vehicle: carboxymethylcellulose (CMC)
[2] = dose: 25.0 mg/kg/injection, schedule: Q01DX001 (ip), vehicle: carboxymethylcellulose (CMC)
[3] = dose: 400.0 mg/kg/injection, schedule: Q04DX003 (ip), vehicle: Klucel (hydroxypropylcellulose) (HPC)
[4] = dose: 50.0 mg/kg/injection, schedule: Q01DX009 (ip), vehicle: water

SMILES: Cc1cc(SC#N)ncn1
- survivor count (dose: 20.0 mg/kg/injection, schedule: Q01DX001 (ip), vehicle: saline): 0 of 4
- survivor count (dose: 40.0 mg/kg/injection, schedule: Q01DX001 (ip), vehicle: saline): 0 of 4
- survivor count (dose: 50.0 mg/kg/injection, schedule: Q01DX001 (ip), vehicle: saline): 0 of 4
- survivor count (dose: 80.0 mg/kg/injection, schedule: Q01DX001 (ip), vehicle: saline): 0 of 4
- survivor count (dose: 100.0 mg/kg/injection, schedule: Q01DX001 (ip), vehicle: saline): 0 of 4
- survivor count (dose: 200.0 mg/kg/injection, schedule: Q01DX001 (ip), vehicle: saline): 0 of 4
- survivor count (dose: 400.0 mg/kg/injection, schedule: Q01DX001 (ip), vehicle: saline): 0 of 4

SMILES: Cc1c(CNc2ccc(C(=O)NC(CC(=O)O)C(=O)O)cc2)ccc2nc(N)nc(N)c12 (stereo not drawn)
- T/C (dose: 0.12 mg/kg/injection, schedule: Q01DX009 (ip), vehicle: other): 133 % of control
- survivor count (dose: 0.19 mg/kg/injection, schedule: Q01DX009 (ip), vehicle: carboxymethylcellulose (CMC)): 6 of 6
- survivor count (dose: 0.38 mg/kg/injection, schedule: Q01DX009 (ip), vehicle: carboxymethylcellulose (CMC)): 6 of 6
- survivor count (dose: 0.5 mg/kg/injection, schedule: Q01DX009 (ip), vehicle: other): 6 of 6
- survivor count (dose: 0.75 mg/kg/injection, schedule: Q01DX009 (ip), vehicle: carboxymethylcellulose (CMC)): 4 of 6
- survivor count (dose: 0.75 mg/kg/injection, schedule: Q01DX009 (ip), vehicle: other): 5 of 6
- survivor count (dose: 1.0 mg/kg/injection, schedule: Q01DX009 (ip), vehicle: other): 6 of 6
- survivor count (dose: 1.5 mg/kg/injection, schedule: Q01DX009 (ip), vehicle: carboxymethylcellulose (CMC)): 5 of 6
- survivor count (dose: 1.5 mg/kg/injection, schedule: Q01DX009 (ip), vehicle: other): 3 of 6
- T/C (dose: 1.56 mg/kg/injection, schedule: Q01DX001 (ip), vehicle: carboxymethylcellulose (CMC)): 135 % of control
- T/C (dose: 2.0 mg/kg/injection, schedule: Q02DX005 (ip), vehicle: water): 127 % of control
- survivor count (dose: 3.0 mg/kg/injection, schedule: Q01DX009 (ip), vehicle: carboxymethylcellulose (CMC)): 3 of 6
- survivor count (dose: 3.0 mg/kg/injection, schedule: Q01DX009 (ip), vehicle: other): 1 of 6
- T/C (dose: 3.13 mg/kg/injection, schedule: Q01DX001 (ip), vehicle: carboxymethylcellulose (CMC)): 139 % of control
- T/C (dose: 3.13 mg/kg/injection, schedule: Q01DX001 (ip), vehicle: other): 129 % of control
- survivor count (dose: 6.0 mg/kg/injection, schedule: Q01DX009 (ip), vehicle: carboxymethylcellulose (CMC)): 3 of 6
- survivor count (dose: 6.0 mg/kg/injection, schedule: Q01DX009 (ip), vehicle: water): 10 of 10
- T/C (dose: 6.25 mg/kg/injection, schedule: Q01DX001 (ip), vehicle: carboxymethylcellulose (CMC)): 146 % of control
- T/C (dose: 6.25 mg/kg/injection, schedule: Q01DX001 (ip), vehicle: other): 131 % of control
- survivor count (dose: 9.0 mg/kg/injection, schedule: Q01DX009 (ip), vehicle: water): 9 of 10
- survivor count (dose: 12.0 mg/kg/injection, schedule: Q01DX009 (ip), vehicle: carboxymethylcellulose (CMC)): 2 of 6
- T/C [1]: 128 and 146 % of control
- survivor count [1]: 1 of 6
- T/C (dose: 12.5 mg/kg/injection, schedule: Q01DX001 (ip), vehicle: other): 145 % of control
- survivor count (dose: 16.0 mg/kg/injection, schedule: Q02DX005 (ip), vehicle: water): 9 of 9
- T/C [2]: 137 % of control
- survivor count [2]: 2 of 6
- survivor count (dose: 25.0 mg/kg/injection, schedule: Q01DX001 (ip), vehicle: other): 3 of 6
- survivor count (dose: 50.0 mg/kg/injection, schedule: Q01DX001 (ip), vehicle: carboxymethylcellulose (CMC)): 1 of 6
- survivor count (dose: 50.0 mg/kg/injection, schedule: Q01DX001 (ip), vehicle: other): 1 of 6
- T/C (dose: 75.0 mg/kg/injection, schedule: Q01DX001 (ip), vehicle: carboxymethylcellulose (CMC)): 133 % of control [5 of 6 alive]
- survivor count (dose: 100.0 mg/kg/injection, schedule: Q01DX001 (ip), vehicle: carboxymethylcellulose (CMC)): 3 of 6
- survivor count (dose: 100.0 mg/kg/injection, schedule: Q01DX001 (ip), vehicle: other): 0 of 6
- survivor count (dose: 150.0 mg/kg/injection, schedule: Q01DX001 (ip), vehicle: carboxymethylcellulose (CMC)): 2 of 6
- survivor count (dose: 200.0 mg/kg/injection, schedule: Q01DX001 (ip), vehicle: carboxymethylcellulose (CMC)): 2 of 6
- survivor count (dose: 200.0 mg/kg/injection, schedule: Q01DX001 (ip), vehicle: other): 0 of 6
- survivor count (dose: 300.0 mg/kg/injection, schedule: Q01DX001 (ip), vehicle: carboxymethylcellulose (CMC)): 3 of 6

SMILES: CC(=O)C1(c2ccccc2)OC1c1ccccc1 (stereo not drawn)
- survivor count [3]: 1 of 6

SMILES: CCN(CC)CCOC(=O)C(O)(c1ccccc1)c1ccccc1
- survivor count (dose: 200.0 mg/kg/injection, schedule: Q04DX002 (ip), vehicle: saline): 1 of 3
- survivor count (dose: 400.0 mg/kg/injection, schedule: Q04DX002 (ip), vehicle: saline): 0 of 3

SMILES: O=[N+]([O-])c1ccc(Cl)c2ccccc12
- survivor count (dose: 50.0 mg/kg/injection, schedule: Q01DX009 (ip), vehicle: saline with Tween-80): 3 of 3

SMILES: Clc1cc(C(Cl)(Cl)Cl)ccc1C(Cl)(Cl)Cl
- survivor count (dose: 100.0 mg/kg/injection, schedule: Q01DX009 (ip), vehicle: Klucel (hydroxypropylcellulose) (HPC)): 3 of 3
- survivor count (dose: 200.0 mg/kg/injection, schedule: Q01DX009 (ip), vehicle: Klucel (hydroxypropylcellulose) (HPC)): 3 of 3
- survivor count (dose: 400.0 mg/kg/injection, schedule: Q01DX009 (ip), vehicle: Klucel (hydroxypropylcellulose) (HPC)): 3 of 3

SMILES: O=C1C=CC(=O)c2c(O)c(CBr)c(CBr)c(O)c21
- survivor count [4]: 2 of 6
- survivor count (dose: 100.0 mg/kg/injection, schedule: Q01DX009 (ip), vehicle: water): 3 of 6
- survivor count (dose: 200.0 mg/kg/injection, schedule: Q01DX009 (ip), vehicle: water): 1 of 6
- survivor count (dose: 400.0 mg/kg/injection, schedule: Q01DX009 (ip), vehicle: water): 0 of 6

SMILES: CC[N+](CC)(CC)CCCCCC[N+](CC)(CC)CC
- survivor count (dose: 25.0 mg/kg/injection, schedule: Q01DX009 (ip), vehicle: water): 0 of 6
- survivor count (dose: 25.0 mg/kg/injection, schedule: Q04DX003 (ip), vehicle: saline): 0 of 6
- survivor count [4]: 0 of 6
- survivor count (dose: 100.0 mg/kg/injection, schedule: Q04DX003 (ip), vehicle: water): 0 of 6
- survivor count (dose: 200.0 mg/kg/injection, schedule: Q04DX003 (ip), vehicle: water): 0 of 6
- survivor count (dose: 400.0 mg/kg/injection, schedule: Q04DX003 (ip), vehicle: water): 0 of 6

SMILES: CCCCCCCCCCCC(=O)NN
- survivor count (dose: 150.0 mg/kg/injection, schedule: Q01DX009 (ip), vehicle: carboxymethylcellulose (CMC)): 1 of 6
- survivor count (dose: 300.0 mg/kg/injection, schedule: Q01DX009 (ip), vehicle: carboxymethylcellulose (CMC)): 0 of 6
- survivor count (dose: 600.0 mg/kg/injection, schedule: Q01DX009 (ip), vehicle: carboxymethylcellulose (CMC)): 0 of 6

SMILES: [I][Pb]([c]1ccccc1)([c]1ccccc1)[c]1ccccc1
- survivor count (dose: 50.0 mg/kg/injection, schedule: Q04DX003 (ip), vehicle: Klucel (hydroxypropylcellulose) (HPC)): 0 of 6
- survivor count (dose: 100.0 mg/kg/injection, schedule: Q04DX003 (ip), vehicle: Klucel (hydroxypropylcellulose) (HPC)): 0 of 6
- survivor count (dose: 200.0 mg/kg/injection, schedule: Q04DX003 (ip), vehicle: Klucel (hydroxypropylcellulose) (HPC)): 0 of 6
- survivor count [3]: 0 of 6
